Data as given in patent US20200147070A1, “INDUCING PHOSPHOLIPIDOSIS FOR ENHANCING THERAPEUTIC EFFICACY” (Nextcea Inc., priority 2017, published 2020).

Conditions: amiodarone 150 mg/kg/day co-administered with fluoxetine 10 mg/kg/day, 2 weeks, vs amiodarone alone

Question: For `CCCCc1oc2ccccc2c1C(=O)c1cc(I)c(OCCN(CC)CC)c(I)c1` [amiodarone], which “amiodarone concentration in the heart” value is on record?
Answer: increased
